Measured values taken from PMC12048721.
No constants are given. Whether binding was seen depends on the method and setting. Binding seen in cells or lysates may run through a third protein. Binding calls can cover weak binding; strength is not graded here. Where a sequence is shown, tags or fusion partners need not be part of it.

Chains of the proteins cited; added tags and fusions are not shown. Lines headed by an entry give the natural chain unless they say otherwise; changes in a name come on top.
UniProt Q99988: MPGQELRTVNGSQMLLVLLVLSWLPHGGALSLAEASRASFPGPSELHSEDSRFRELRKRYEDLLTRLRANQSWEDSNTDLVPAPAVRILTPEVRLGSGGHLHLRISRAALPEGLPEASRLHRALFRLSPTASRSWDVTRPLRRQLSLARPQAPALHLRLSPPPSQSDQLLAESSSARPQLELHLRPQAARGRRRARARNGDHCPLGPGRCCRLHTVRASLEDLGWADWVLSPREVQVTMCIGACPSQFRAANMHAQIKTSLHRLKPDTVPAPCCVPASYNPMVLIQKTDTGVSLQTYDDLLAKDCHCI

Biological target: T1, EpCAM-3XFLAG (human (cDNA from HCT116 cells)) (UniProt P16422)
T1 sequence: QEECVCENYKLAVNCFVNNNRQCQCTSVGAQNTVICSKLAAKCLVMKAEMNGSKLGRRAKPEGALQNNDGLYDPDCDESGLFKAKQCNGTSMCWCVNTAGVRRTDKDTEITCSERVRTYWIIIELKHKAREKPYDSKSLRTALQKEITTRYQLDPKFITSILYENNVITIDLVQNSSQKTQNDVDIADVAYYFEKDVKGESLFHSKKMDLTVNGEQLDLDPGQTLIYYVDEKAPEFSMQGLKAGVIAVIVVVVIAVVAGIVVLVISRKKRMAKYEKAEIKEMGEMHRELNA
Experiment: co-IP; HCT116, transfected; NP-40 lysis buffer (Tris-HCl 50 mM, pH 8.0, NaCl 150 mM, NP-40 1%); 1 mg lysate with 1 μg antibody overnight at 4 °C; Protein A/G magnetic beads; EpCAM pulled down with anti-FLAG, NAG-1/GDF15 detected with anti-V5

binding	Substance
binds	NAG-1/GDF15 R193A (from UniProt Q99988)
binds	NAG-1/GDF15 WT (from UniProt Q99988)
